Laboratory results as given in the supplement of paper PMC12819154, “High-throughput peptide-centric local stability assay extends protein–ligand identification to membrane proteins, tissues and bacteria” (Nature Structural & Molecular Biology, 2025).
The other results are listed elsewhere or left out. Most entries show no effect beyond the scatter of the controls.

The chains behind the UniProt entries cited, without tags or fusion partners. Where a name states a change or a piece, a line headed by the entry shows the natural chain unless it says otherwise.
UniProt P77454: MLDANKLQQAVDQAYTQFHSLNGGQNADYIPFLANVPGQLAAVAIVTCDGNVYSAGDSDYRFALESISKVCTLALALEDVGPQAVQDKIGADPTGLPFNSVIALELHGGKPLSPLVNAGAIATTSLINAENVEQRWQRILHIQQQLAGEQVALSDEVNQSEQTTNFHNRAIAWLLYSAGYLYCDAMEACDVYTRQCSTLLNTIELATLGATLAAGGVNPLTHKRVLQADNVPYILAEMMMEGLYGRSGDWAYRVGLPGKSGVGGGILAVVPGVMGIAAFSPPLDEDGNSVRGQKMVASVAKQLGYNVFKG
UniProt P77555: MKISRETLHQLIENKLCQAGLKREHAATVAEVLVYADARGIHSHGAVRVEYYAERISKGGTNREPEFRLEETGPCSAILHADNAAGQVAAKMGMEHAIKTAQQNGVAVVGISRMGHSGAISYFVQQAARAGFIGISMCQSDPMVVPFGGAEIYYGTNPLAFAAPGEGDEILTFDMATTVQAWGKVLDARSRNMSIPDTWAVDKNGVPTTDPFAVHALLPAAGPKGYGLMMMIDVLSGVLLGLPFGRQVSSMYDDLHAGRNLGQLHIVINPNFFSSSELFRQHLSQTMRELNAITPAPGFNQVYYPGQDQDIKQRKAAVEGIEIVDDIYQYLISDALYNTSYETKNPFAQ
UniProt P76208: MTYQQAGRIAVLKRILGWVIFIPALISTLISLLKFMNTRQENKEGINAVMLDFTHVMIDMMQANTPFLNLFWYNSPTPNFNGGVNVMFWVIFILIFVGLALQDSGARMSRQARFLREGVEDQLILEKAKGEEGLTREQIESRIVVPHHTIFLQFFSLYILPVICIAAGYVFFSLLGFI
UniProt P76053: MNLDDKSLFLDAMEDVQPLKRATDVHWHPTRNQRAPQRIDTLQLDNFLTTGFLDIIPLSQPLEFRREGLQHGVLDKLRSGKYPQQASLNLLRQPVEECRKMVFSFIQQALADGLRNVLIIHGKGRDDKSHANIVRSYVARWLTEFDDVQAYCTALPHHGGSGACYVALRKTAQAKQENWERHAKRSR
UniProt P76481: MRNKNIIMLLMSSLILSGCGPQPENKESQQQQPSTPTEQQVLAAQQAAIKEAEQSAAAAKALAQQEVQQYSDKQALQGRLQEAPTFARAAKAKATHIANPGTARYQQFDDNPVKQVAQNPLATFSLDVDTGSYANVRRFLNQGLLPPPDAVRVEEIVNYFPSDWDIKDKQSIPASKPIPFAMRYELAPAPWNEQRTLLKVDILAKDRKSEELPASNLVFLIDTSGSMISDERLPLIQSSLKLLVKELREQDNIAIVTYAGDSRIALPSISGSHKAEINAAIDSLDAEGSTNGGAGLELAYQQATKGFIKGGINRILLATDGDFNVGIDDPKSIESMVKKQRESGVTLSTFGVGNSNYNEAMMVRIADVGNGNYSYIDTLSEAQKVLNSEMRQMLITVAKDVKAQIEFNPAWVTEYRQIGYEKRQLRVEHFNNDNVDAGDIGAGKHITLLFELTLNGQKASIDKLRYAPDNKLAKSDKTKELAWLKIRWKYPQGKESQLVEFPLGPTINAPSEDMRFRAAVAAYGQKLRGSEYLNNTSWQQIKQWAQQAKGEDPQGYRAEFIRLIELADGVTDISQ
UniProt P76187: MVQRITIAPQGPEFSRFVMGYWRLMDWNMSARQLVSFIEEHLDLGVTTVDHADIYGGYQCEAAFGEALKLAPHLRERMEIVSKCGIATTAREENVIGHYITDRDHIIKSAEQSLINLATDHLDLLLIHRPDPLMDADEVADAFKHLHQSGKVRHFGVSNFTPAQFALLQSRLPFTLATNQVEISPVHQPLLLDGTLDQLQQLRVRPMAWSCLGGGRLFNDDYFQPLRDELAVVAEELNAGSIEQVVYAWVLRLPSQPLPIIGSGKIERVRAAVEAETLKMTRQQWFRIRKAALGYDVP
UniProt P77333: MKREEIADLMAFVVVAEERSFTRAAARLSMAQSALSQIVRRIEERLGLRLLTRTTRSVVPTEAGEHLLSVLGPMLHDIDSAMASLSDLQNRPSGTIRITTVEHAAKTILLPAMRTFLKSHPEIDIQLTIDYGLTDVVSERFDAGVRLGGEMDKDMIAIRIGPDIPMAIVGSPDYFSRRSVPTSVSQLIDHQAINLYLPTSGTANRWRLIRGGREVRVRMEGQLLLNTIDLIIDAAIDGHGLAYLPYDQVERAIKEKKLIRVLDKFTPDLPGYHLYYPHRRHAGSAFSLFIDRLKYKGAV
UniProt P76938: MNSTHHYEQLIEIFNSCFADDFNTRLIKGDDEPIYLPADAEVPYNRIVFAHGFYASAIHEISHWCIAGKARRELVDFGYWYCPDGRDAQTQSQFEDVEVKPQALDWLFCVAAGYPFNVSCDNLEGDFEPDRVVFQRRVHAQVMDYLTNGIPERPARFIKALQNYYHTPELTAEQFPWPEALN
UniProt P76576: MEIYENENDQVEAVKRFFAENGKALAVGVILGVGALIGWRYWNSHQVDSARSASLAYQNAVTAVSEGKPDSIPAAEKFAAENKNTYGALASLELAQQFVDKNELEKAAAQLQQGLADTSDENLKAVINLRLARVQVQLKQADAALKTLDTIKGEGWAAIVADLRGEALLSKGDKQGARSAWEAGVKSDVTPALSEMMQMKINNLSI
UniProt P76113: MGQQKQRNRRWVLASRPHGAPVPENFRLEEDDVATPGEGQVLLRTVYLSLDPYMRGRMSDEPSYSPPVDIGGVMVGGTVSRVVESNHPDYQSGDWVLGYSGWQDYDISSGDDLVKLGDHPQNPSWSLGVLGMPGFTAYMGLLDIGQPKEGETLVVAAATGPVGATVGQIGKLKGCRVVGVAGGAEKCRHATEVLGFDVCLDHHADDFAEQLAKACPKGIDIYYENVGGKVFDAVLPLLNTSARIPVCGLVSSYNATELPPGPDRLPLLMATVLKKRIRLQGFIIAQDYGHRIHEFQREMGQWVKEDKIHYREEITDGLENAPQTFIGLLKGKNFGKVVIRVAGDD
UniProt P76222: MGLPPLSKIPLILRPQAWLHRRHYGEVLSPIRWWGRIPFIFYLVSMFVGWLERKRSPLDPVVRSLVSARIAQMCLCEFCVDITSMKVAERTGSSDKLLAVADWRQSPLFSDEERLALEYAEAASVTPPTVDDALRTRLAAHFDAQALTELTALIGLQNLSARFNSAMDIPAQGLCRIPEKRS
UniProt P76102: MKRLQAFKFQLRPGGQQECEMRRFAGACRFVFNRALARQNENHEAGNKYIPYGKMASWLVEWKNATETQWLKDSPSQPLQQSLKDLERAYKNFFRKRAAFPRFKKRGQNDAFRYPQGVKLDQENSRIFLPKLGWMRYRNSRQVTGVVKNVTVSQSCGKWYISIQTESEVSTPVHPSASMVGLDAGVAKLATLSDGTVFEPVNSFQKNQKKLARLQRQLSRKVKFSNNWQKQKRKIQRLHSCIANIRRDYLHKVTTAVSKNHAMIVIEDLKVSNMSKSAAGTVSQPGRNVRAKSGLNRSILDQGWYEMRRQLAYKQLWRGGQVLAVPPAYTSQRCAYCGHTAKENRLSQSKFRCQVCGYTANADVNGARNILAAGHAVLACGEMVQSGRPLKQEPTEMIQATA
UniProt P77562: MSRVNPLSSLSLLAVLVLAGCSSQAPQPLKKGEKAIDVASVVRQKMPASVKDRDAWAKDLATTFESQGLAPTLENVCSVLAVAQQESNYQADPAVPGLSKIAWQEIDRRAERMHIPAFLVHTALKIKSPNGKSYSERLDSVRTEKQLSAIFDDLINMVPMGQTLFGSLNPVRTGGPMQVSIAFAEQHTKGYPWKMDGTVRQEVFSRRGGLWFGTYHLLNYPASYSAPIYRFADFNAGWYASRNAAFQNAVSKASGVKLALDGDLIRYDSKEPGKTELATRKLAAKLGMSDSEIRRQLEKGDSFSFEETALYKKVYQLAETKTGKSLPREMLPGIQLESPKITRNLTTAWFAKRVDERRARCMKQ
UniProt P77445: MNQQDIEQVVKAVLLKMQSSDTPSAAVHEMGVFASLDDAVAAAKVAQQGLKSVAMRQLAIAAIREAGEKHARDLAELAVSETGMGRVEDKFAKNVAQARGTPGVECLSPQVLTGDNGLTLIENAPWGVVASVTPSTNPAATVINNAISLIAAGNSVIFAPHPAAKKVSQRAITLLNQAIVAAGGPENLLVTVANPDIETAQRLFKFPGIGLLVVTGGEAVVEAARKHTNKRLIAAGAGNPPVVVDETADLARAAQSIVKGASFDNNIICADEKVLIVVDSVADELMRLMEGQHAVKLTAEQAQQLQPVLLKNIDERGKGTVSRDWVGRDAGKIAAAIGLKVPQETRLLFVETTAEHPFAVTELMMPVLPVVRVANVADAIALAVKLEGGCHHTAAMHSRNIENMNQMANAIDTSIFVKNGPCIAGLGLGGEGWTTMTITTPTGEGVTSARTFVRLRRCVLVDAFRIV
UniProt P77596: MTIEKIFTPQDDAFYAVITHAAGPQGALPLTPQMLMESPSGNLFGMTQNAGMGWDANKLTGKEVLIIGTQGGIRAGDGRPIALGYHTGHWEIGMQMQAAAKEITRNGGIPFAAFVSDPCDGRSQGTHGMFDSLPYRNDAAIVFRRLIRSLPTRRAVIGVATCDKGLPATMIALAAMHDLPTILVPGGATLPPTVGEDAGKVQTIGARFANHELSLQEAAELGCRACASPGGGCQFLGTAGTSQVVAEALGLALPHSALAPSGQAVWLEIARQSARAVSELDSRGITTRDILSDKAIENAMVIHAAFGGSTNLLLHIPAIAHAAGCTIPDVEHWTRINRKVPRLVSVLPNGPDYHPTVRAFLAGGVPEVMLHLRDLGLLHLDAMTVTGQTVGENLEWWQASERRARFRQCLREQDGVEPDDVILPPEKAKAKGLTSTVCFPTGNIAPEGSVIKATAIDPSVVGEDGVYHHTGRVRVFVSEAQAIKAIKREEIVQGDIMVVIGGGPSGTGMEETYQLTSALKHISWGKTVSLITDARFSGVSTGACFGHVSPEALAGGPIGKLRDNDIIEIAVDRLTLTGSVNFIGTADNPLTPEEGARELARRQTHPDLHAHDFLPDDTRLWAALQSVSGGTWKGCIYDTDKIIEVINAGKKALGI
UniProt P77376: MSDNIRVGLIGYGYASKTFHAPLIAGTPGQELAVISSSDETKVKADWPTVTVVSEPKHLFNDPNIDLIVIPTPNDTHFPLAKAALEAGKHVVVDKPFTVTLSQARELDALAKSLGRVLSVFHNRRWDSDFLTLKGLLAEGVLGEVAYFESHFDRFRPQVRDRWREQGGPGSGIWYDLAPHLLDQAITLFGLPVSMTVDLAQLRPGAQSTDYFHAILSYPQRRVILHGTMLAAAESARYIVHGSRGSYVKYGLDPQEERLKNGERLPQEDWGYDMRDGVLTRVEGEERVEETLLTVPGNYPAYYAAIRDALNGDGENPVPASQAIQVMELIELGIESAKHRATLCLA
UniProt P76655: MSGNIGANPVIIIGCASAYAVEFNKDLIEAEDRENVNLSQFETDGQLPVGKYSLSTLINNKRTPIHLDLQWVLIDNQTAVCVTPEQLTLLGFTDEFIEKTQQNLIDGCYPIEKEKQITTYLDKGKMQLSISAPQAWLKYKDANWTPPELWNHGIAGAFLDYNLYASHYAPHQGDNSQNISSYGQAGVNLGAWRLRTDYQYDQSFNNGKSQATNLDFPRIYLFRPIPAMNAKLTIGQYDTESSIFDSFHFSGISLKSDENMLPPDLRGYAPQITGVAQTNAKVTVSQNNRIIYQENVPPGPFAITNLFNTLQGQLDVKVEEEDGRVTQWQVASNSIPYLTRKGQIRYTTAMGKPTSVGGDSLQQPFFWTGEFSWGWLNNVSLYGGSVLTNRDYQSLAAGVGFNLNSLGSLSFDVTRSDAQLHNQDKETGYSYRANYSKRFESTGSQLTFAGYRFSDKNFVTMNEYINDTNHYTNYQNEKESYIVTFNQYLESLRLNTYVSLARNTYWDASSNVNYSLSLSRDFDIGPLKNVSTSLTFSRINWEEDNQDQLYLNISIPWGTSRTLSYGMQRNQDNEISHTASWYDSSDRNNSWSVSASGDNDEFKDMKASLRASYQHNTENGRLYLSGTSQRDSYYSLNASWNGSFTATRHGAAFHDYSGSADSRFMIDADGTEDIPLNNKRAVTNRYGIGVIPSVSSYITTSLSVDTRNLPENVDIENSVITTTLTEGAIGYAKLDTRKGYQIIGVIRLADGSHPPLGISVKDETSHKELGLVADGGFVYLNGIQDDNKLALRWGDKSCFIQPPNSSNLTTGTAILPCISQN
UniProt P77552: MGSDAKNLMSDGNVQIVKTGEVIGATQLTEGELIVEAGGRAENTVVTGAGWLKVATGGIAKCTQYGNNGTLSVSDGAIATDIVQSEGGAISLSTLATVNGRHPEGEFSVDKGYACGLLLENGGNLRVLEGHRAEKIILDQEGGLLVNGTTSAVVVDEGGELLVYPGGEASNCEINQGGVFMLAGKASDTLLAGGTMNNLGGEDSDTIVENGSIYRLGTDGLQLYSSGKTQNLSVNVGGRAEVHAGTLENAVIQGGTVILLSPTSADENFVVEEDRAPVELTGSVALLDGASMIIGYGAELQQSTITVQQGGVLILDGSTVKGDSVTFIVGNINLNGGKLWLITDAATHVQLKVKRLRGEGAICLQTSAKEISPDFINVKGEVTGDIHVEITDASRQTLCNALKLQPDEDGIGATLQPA

Compound: CC1(C)S[C@@H]2[C@H](NC(=O)[C@H](N)c3ccccc3)C(=O)N2[C@H]1C(=O)O [ampicillin]
Assay: log2 fold change of tryptic peptide abundance, ligand vs vehicle (limited proteolysis) (log2 ratio); higher = more trypsin-susceptible (destabilized)
Settings: ligand concentration: 10 uM; sample: E. coli crude lysate

Target	log2 fold change
UniProt P76270 (peptide sequence: TEFYADLNR, peptide start residue: 4)	0.13
UniProt P77454 (peptide sequence: QLGYNVFKG, peptide start residue: 302)	-0.259
UniProt P77555 (peptide sequence: MGMEHAIK, peptide start residue: 92)	-0.268
UniProt P76208 (peptide sequence: EGVEDQLILEK, peptide start residue: 117)	-0.0227
UniProt P75989 (peptide sequence: WISNGVPVGK, peptide start residue: 56)	-0.122
UniProt P76053 (peptide sequence: YPQQASLNLLR, peptide start residue: 82)	-0.659
UniProt P77247 (peptide sequence: QPWNGPSR, peptide start residue: 65)	0.231
UniProt P76245 (peptide sequence: EQSLESLVR, peptide start residue: 16)	-0.0806
UniProt P76481 (peptide sequence: LQEAPTFAR, peptide start residue: 80)	-0.0284
UniProt P76187 (peptide sequence: LMDWNMSAR, peptide start residue: 24)	-0.268
UniProt P77333 (peptide sequence: LGGEMDKDMIAIR, peptide start residue: 147)	-0.344
UniProt P77624 (peptide sequence: RIVEAPAIK, peptide start residue: 172)	0.268
UniProt P77567 (peptide sequence: LVSDLVQTTPHGEYR, peptide start residue: 136)	0.288
UniProt P76015 (peptide sequence: GDSLDACAELGR, peptide start residue: 167)	-0.145
UniProt P76938 (peptide sequence: VHAQVMDYLTNGIPERPAR, peptide start residue: 138)	-0.115
UniProt P77668 (peptide sequence: IAIEREAR, peptide start residue: 189)	0.0681
UniProt P77280 (peptide sequence: QAPYLVMR, peptide start residue: 253)	0.322
UniProt P76536 (peptide sequence: REVAVIKDGVDAGGSYVFVQR, peptide start residue: 155)	0.731
UniProt P76576 (peptide sequence: GEALLSKGDK, peptide start residue: 165)	0.141

Single values from the list.
UniProt P77247 (peptide sequence: QPWNGPSR, peptide start residue: 65) – log2 fold change: 0.231
UniProt P76187 (peptide sequence: LMDWNMSAR, peptide start residue: 24) – log2 fold change: -0.268

Continuation:

Target	log2 fold change
UniProt P76113 (peptide sequence: LQGFIIAQDYGHR, peptide start residue: 279)	-0.491
UniProt P76339 (peptide sequence: VECNQQIFADK, peptide start residue: 336)	0.835
UniProt P76114 (peptide sequence: QLDEINR, peptide start residue: 81)	0.498
UniProt P76222 (peptide sequence: LLAVADWR, peptide start residue: 97)	-0.241
UniProt P76373 (peptide sequence: KPQVVGIYR, peptide start residue: 295)	0.934
UniProt P76102 (peptide sequence: FQLRPGGQQECEMR, peptide start residue: 9)	0.31
UniProt P77562 (peptide sequence: LALDGDLIR, peptide start residue: 258)	0.351
UniProt P77445 (peptide sequence: IAAAIGLKVPQETR, peptide start residue: 333)	-0.422
UniProt P77596 (peptide sequence: FANHELSLQEAAELGCR, peptide start residue: 208)	-0.121
UniProt P77499 (peptide sequence: IALLKMPEDLLTR, peptide start residue: 128)	-0.611
UniProt P77376 (peptide sequence: VILHGTMLAAAESAR, peptide start residue: 223)	0.439
UniProt P76655 (peptide sequence: LYLSGTSQR, peptide start residue: 622)	-0.255
UniProt P77552 (peptide sequence: HPEGEFSVDK, peptide start residue: 102)	0.297
UniProt P77625 (peptide sequence: SEADIAAEFTR, peptide start residue: 60)	0.148
UniProt P77339 (peptide sequence: AQVTQSNINK, peptide start residue: 32)	0.193
UniProt P77489 (peptide sequence: SATLHEATAGGR, peptide start residue: 554)	0.19
UniProt P76192 (peptide sequence: SVFDLGPAAEKYTVK, peptide start residue: 289)	-0.344
UniProt P76440 (peptide sequence: LSGELTMAADKIILAVGQHAR, peptide start residue: 329)	0.698
